Experimental data as given in paper PMC6991692.

Protein sequences, listed by entry. Tags and fused reporters are not part of them.
UniProt Q8BGW2: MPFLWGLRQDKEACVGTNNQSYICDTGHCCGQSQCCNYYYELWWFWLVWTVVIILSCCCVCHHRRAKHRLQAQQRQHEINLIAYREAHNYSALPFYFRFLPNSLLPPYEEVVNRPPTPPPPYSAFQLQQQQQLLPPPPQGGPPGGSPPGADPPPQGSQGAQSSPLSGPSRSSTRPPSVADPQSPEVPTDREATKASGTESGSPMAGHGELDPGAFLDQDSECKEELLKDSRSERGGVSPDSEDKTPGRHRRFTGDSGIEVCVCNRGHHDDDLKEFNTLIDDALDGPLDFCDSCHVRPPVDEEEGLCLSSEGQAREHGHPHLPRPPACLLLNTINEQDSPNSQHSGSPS
UniProt Q8C863: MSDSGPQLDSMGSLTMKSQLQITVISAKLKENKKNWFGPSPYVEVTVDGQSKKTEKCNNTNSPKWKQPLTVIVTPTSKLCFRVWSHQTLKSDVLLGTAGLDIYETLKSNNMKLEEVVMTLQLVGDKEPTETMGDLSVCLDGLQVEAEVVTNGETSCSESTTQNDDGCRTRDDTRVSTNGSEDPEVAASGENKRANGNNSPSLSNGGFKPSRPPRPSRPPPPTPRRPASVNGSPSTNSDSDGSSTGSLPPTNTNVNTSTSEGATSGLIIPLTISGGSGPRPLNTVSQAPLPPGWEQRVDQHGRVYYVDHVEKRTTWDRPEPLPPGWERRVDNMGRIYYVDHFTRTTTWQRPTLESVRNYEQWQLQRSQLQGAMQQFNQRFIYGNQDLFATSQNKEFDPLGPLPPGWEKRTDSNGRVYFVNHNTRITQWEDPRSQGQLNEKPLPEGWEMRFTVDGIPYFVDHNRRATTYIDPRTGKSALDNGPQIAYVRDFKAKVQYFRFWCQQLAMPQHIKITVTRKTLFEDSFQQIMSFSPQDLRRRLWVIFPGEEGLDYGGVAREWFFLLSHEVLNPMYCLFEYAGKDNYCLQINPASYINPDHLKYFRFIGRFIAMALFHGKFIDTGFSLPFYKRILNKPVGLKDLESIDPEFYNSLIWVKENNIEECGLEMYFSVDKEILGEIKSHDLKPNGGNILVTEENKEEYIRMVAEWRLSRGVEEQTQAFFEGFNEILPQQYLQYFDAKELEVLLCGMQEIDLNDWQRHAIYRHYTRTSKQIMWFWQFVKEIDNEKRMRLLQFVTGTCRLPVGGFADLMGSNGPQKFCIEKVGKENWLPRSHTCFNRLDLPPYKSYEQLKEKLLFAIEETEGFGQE
UniProt Q8CFI0: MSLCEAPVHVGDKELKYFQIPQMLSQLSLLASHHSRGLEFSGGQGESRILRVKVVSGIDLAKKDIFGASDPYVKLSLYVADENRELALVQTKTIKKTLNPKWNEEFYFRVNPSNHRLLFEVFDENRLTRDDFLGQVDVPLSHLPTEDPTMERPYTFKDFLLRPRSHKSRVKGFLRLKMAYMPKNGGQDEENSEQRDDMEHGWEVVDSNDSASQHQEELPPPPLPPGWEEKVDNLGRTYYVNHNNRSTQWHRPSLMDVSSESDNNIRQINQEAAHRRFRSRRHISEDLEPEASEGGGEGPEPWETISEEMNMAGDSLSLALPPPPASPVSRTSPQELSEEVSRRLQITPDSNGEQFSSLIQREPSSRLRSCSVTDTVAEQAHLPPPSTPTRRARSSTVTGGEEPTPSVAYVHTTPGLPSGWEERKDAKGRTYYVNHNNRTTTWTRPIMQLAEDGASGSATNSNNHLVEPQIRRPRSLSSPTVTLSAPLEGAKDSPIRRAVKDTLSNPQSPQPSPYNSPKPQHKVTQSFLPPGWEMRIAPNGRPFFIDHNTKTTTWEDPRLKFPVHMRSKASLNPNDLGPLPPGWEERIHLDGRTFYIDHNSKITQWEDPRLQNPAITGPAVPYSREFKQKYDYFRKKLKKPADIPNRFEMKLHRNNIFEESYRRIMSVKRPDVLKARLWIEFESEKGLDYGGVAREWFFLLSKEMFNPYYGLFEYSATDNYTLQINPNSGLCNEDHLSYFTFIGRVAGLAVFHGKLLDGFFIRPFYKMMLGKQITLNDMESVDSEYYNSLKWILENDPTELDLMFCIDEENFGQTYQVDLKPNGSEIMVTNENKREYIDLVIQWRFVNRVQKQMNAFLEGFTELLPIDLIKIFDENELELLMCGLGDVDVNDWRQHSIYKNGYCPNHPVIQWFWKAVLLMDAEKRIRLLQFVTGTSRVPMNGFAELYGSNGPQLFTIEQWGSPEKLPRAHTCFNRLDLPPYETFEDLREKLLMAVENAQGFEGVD
UniProt Q9DBH0: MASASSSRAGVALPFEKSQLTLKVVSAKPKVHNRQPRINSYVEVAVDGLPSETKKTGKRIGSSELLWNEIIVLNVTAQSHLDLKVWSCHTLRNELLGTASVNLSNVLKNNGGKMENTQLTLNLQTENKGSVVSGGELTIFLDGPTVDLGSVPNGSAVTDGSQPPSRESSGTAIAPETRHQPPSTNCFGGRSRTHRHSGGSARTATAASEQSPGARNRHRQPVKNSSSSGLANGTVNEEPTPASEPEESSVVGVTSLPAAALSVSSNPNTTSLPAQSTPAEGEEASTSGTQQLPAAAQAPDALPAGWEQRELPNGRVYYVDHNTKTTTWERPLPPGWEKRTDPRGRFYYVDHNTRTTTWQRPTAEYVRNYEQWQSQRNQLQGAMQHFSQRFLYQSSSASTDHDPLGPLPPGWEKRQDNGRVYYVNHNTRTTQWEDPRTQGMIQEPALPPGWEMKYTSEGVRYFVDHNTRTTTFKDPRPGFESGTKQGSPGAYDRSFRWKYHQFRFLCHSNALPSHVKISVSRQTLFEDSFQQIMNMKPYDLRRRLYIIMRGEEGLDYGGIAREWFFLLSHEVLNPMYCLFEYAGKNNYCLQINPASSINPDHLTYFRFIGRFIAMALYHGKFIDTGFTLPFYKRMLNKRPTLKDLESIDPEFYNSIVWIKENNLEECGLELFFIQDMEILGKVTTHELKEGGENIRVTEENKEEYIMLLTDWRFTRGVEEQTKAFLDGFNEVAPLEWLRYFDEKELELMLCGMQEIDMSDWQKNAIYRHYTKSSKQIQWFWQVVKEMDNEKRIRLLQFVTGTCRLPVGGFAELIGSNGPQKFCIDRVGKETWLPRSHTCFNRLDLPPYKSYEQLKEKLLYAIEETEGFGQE

Target: FLAG‐STREP‐tagged WBP1L construct (WW domain binding protein 1‐like) (UniProt Q8BGW2)
Assay: affinity purification with mass spectrometry; WBP1L‐FLAG‐STREP isolated by tandem purification on anti‐FLAG and Streptactin beads from lysates of transduced Wbp1l−/− immortalized monocyte/macrophage progenitors; cells stimulated for 2 min with CXCL12 or left untreated; two independent analyses

Substance | binding
ITCH, endogenous (from UniProt Q8C863 1-864) (enzyme) | binds
WWP1, endogenous (from UniProt Q8BZZ3 1-918) (enzyme) | binds
NEDD4L, endogenous in immortalized monocyte/macrophage progenitors (from UniProt Q8CFI0 1-1004) (enzyme) | binds
WWP2, endogenous in immortalized monocyte/macrophage progenitors (from UniProt Q9DBH0 1-870) (enzyme) | binds

Results are given in words; binding and its absence hold for the method and conditions named. In cells and extracts the contact can be indirect. These calls come from enrichment with a bait or labelling near it, and not all partners need be listed.
